Source: PMC10121563 (2023)
No constants are given. Whether binding was seen depends on the method and setting. For part of these data: A result given as binding can be weak or reduced; the word gives no strength. Sequences can lack the tags named with a protein. For part of these data: Binding seen in cells or lysates may run through a third protein. Each block holds one molecule with its values, some of them ahead of it.

Columns and labels:
[1] = target: T1, OsJAZ6-cYFP (rice (Oryza sativa)) (UniProt Q84R94); assay: split reporter; BiFC with the N- and C-terminal regions of YFP; rice protoplasts by the results and legend, agroinfiltrated Nicotiana benthamiana leaves by the methods; confocal microscopy
T1 sequence: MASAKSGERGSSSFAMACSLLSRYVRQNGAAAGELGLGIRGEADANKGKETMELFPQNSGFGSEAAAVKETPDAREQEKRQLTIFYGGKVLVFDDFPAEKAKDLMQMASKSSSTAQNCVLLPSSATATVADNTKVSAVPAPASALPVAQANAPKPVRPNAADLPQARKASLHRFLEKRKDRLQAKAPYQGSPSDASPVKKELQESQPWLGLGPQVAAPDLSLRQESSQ

[2] = target: T2, OsJAZ7-cYFP (rice (Oryza sativa)) (UniProt Q8H395); assay: as above
T2 sequence: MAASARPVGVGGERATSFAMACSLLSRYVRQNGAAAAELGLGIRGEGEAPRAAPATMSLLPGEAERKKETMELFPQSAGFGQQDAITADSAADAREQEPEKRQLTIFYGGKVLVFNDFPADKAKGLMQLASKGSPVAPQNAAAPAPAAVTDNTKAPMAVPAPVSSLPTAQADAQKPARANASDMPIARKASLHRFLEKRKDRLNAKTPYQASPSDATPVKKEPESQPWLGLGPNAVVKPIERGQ

[3] = target: GST::OsABI3 fusion protein (rice (Oryza sativa)); assay: pull-down; 2 μg MBP::OsJAZ6 or MBP::OsJAZ7 prey incubated with 2 μg immobilized GST, GST::OsABI3 or GST::OsABI5 bait; washed three times; immunoblot with anti-GST and anti-MBP; both purified
[4] = target: glutathione-S-transferase (GST) alone; assay: as above

binding [1]: binds
binding [2]: binds
Molecule: OsABI3-nYFP (rice (Oryza sativa))

binding [3]: binds
binding [4]: no binding
B1: MBP::OsJAZ6 fusion protein (protein)
chain: T1 sequence

binding [3]: binds
binding [4]: no binding
B2: MBP::OsJAZ7 fusion protein (protein)
chain: T2 sequence
